The values that follow come from the supplement of paper PMC12819154, “High-throughput peptide-centric local stability assay extends protein–ligand identification to membrane proteins, tissues and bacteria” (Nature Structural & Molecular Biology, 2025).

By UniProt entry, the sequences of proteins in these tests, tags left out. Where a name states a change or a piece, a line headed by the entry shows the natural chain unless it says otherwise.
UniProt Q13490, whole entry: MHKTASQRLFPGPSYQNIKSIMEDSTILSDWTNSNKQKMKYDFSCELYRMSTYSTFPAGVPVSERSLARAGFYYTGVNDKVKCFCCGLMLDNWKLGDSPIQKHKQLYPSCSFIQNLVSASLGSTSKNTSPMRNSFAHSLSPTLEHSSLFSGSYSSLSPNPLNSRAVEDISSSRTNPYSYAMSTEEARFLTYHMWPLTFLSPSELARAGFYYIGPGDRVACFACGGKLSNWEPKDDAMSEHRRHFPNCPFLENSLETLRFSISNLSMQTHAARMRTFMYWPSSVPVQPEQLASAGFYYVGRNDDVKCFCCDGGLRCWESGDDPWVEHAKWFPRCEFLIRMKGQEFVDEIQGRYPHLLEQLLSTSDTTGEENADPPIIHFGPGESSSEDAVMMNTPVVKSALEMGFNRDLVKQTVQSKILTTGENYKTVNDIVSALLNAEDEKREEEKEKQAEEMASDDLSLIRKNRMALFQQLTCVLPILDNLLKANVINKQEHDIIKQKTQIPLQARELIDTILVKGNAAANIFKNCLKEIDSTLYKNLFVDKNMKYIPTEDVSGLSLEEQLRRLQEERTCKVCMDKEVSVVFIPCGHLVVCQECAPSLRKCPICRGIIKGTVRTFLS
UniProt Q14061: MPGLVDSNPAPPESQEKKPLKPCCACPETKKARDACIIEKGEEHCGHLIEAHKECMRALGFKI
UniProt Q13625: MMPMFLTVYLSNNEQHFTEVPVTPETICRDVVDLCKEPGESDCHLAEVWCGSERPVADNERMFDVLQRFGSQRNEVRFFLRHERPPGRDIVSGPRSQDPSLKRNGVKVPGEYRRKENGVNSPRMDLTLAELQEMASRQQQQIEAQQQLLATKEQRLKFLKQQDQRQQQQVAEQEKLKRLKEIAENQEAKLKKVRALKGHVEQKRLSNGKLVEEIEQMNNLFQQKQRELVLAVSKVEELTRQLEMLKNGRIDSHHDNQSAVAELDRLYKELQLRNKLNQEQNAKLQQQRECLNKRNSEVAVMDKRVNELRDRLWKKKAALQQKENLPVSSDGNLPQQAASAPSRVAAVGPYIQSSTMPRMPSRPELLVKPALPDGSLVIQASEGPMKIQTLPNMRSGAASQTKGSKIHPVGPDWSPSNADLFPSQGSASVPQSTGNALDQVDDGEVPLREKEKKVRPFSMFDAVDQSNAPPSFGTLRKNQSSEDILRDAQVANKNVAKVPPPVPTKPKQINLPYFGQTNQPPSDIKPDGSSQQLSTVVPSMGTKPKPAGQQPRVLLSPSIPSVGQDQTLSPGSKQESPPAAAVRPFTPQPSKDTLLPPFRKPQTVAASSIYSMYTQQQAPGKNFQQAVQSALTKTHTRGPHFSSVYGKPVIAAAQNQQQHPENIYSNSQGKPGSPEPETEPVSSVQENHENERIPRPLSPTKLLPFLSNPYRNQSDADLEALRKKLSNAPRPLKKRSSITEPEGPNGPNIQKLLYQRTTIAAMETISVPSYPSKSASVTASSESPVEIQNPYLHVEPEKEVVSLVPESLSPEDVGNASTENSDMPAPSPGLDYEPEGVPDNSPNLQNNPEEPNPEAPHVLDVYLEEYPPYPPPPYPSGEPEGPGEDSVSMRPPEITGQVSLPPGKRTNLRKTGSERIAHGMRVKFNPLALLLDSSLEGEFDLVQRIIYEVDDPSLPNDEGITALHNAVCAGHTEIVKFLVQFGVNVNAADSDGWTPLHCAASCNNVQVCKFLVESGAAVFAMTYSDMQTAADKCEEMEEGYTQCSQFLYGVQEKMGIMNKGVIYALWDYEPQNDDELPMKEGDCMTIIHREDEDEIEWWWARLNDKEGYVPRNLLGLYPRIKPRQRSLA
UniProt Q14657: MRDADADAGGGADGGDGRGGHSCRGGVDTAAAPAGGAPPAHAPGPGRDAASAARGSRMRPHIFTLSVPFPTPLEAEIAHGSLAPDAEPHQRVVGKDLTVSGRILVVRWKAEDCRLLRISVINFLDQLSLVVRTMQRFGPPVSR
UniProt Q14674: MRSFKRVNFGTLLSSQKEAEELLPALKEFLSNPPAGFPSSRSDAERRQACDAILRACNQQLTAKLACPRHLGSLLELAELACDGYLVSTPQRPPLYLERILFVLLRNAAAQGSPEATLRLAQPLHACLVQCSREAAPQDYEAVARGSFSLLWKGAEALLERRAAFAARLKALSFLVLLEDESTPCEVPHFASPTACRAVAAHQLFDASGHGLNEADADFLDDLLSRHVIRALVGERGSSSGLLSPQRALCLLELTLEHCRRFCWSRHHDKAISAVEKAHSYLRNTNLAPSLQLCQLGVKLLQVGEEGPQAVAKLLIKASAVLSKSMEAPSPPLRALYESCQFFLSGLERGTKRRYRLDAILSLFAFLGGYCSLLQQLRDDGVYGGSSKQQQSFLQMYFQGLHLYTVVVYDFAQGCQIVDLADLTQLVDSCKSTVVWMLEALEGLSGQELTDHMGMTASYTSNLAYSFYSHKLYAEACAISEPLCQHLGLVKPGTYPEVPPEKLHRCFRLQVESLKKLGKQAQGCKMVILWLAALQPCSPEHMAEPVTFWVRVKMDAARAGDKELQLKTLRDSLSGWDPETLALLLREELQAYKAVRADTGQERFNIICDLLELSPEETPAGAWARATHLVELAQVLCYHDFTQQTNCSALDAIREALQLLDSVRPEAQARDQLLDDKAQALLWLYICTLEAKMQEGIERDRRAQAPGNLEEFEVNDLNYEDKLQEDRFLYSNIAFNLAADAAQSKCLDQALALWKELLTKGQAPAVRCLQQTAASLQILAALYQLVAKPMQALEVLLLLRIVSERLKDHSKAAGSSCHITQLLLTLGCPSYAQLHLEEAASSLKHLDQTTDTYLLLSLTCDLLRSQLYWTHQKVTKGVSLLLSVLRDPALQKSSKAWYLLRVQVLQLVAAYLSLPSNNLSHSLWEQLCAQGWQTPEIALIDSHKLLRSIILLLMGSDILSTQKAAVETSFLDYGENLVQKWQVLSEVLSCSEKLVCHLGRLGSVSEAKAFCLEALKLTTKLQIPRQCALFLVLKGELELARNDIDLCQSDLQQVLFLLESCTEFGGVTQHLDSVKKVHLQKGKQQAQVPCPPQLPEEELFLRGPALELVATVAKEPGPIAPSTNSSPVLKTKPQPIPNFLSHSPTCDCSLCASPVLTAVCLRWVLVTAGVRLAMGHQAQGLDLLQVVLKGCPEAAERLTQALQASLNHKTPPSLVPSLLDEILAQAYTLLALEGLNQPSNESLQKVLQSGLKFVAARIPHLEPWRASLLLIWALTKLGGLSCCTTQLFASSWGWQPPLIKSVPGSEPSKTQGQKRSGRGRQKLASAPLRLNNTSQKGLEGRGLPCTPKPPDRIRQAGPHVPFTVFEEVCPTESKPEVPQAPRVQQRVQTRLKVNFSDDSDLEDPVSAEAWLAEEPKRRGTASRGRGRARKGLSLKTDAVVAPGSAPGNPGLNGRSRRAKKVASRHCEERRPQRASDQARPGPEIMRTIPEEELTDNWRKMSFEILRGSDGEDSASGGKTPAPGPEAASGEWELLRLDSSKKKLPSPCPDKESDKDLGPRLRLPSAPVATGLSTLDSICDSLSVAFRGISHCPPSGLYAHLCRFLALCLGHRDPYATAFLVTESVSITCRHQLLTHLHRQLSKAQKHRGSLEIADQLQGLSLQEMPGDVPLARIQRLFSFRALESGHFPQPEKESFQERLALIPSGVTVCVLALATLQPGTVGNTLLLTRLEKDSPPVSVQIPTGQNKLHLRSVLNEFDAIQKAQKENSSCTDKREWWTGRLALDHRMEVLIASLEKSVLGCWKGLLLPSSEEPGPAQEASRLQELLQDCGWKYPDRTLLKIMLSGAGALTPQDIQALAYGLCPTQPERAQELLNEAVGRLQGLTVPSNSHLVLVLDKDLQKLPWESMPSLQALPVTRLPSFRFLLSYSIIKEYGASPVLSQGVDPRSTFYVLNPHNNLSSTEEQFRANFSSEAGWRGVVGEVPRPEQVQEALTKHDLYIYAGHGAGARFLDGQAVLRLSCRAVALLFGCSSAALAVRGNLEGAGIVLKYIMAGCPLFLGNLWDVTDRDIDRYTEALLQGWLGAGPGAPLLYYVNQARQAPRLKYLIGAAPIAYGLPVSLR
UniProt Q14978: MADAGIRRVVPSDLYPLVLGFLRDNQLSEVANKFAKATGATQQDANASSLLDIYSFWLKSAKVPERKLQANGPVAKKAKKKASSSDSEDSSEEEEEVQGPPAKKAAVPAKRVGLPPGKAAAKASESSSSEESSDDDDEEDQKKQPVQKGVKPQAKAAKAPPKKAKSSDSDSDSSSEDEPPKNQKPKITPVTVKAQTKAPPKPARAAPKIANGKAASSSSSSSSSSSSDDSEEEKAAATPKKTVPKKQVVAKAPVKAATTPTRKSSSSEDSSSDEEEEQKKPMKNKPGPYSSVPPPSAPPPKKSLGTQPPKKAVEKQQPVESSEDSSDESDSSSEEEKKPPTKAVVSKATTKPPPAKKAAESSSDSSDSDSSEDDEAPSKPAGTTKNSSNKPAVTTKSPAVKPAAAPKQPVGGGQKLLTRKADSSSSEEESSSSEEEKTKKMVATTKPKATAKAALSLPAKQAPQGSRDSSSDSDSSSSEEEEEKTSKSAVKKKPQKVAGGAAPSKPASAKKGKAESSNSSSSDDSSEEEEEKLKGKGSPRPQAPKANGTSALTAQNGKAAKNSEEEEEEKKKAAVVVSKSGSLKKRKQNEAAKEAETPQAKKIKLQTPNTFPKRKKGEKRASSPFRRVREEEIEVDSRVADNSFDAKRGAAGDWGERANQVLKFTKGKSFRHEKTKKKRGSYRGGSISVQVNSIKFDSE
UniProt Q14C86: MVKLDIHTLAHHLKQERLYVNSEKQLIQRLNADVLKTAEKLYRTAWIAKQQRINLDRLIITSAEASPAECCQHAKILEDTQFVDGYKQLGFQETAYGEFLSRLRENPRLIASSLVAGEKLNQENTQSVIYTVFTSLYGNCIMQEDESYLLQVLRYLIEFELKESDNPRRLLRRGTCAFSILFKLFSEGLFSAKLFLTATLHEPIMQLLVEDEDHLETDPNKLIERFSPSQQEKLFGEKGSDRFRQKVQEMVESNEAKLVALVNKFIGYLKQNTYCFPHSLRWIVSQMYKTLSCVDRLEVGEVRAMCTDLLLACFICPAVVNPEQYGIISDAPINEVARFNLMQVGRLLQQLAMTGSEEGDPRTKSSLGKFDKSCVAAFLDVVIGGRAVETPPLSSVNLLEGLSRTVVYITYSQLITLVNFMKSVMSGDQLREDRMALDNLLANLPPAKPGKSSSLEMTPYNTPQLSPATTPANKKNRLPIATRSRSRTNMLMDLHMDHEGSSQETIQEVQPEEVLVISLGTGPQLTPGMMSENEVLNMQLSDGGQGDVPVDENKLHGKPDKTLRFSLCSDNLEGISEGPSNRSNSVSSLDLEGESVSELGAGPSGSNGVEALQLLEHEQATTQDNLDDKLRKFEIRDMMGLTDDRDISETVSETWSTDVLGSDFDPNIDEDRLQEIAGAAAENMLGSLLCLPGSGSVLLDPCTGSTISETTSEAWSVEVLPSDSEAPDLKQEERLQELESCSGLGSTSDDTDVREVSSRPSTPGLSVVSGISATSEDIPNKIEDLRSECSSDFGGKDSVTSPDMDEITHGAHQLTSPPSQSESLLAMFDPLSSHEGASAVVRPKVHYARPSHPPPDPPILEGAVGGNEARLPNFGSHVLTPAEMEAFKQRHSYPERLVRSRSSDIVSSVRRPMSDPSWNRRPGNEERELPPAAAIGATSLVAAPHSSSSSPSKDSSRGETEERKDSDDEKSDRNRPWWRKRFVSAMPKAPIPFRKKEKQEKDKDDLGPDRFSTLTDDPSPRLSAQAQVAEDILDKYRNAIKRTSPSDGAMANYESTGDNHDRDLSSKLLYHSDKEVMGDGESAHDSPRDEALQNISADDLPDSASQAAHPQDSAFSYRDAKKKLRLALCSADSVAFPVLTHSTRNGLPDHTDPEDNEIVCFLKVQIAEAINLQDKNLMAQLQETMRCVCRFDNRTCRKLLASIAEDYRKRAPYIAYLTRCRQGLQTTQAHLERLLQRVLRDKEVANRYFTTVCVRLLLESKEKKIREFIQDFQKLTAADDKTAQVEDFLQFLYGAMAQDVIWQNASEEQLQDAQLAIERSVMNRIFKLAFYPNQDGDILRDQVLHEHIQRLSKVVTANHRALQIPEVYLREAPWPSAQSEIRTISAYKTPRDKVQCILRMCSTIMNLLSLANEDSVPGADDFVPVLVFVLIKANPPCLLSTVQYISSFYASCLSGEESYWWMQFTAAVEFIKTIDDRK
UniProt Q13155: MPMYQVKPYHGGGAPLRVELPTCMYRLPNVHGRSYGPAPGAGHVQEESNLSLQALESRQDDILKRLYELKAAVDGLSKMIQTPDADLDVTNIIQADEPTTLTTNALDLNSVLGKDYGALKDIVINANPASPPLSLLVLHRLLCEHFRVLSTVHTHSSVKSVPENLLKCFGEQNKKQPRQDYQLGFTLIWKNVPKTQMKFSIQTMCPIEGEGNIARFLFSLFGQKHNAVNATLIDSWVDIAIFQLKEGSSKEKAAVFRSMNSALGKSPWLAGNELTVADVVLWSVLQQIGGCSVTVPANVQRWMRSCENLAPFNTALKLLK

This is one part of the list. Most entries show no effect beyond the scatter of the controls.

Compound in this assay: Cc1nc(Nc2ncc(C(=O)Nc3c(C)cccc3Cl)s2)cc(N2CCN(CCO)CC2)n1 [dasatinib]
Put plainly: log2 fold change of tryptic peptide abundance, ligand vs vehicle (limited proteolysis) (log2 ratio); higher = more trypsin-susceptible (destabilized). The note with it: ligand concentration: 5 uM; sample: K562 cleared lysate.
Regarding “NBR1 (peptide sequence: EQVVNETVEKLEQK, peptide start residue: 163) (UniProt Q14596)”, the log2 fold change is -0.159.
As for “HLTF (peptide sequence: AVLDLESER, peptide start residue: 572) (UniProt Q14527)”, the log2 fold change is -0.707.
The value for “NCOA6 (peptide sequence: IGQILLTK, peptide start residue: 1823) (UniProt Q14686)” was 0.129.
As for “BIRC2 (peptide sequence: AGFYYTGVNDK, peptide start residue: 70) (UniProt Q13490)”, the log2 fold change was found to be 0.464.
For the target “GIT2 (peptide sequence: QGGHHELAER, peptide start residue: 209) (UniProt Q14161)”, the log2 fold change was -0.602.
On to “UniProt Q13361 (peptide sequence: LVCKEHEAMKDELCR, peptide start residue: 127)”, for which the log2 fold change turned out to be 0.397.
Under “IK (peptide sequence: ISAIIEKR, peptide start residue: 535) (UniProt Q13123)” stands 0.432.
The value for “DNAJC3 (peptide sequence: ICHCFSK, peptide start residue: 312) (UniProt Q13217)” was -0.387.
The value for “MVP (peptide sequence: DLAVAGPEMQVK, peptide start residue: 809) (UniProt Q14764)” was 0.246; that for “FKBP5 (peptide sequence: RGEAQLLMNEFESAKGDFEK, peptide start residue: 357) (UniProt Q13451)” was 0.111; that for “UniProt Q14767 (peptide sequence: GSCSRPQLCVCR, peptide start residue: 199)” was 0.159.
For “STIM1 (peptide sequence: AEQSLHDLQER, peptide start residue: 254) (UniProt Q13586)”, the log2 fold change was -0.441.
Consider “COX17 (peptide sequence: KPLKPCCACPETK, peptide start residue: 18) (UniProt Q14061)”, for which the log2 fold change is -0.284.
As to “GALE (peptide sequence: GGGSLPESLR, peptide start residue: 41) (UniProt Q14376)”, the log2 fold change is -0.285.
Regarding “TRAF3 (peptide sequence: HDQMLSVHDIR, peptide start residue: 388) (UniProt Q13114)”, the log2 fold change is 0.504.
For the target “SHPRH (peptide sequence: GEFLPLQK, peptide start residue: 989) (UniProt Q149N8)”, the log2 fold change is 0.166.
“TP53BP2 (peptide sequence: KVRPFSMFDAVDQSNAPPSFGTLR, peptide start residue: 453) (UniProt Q13625)”: the log2 fold change stood at 0.324.
Under “STX3 (peptide sequence: SQHSVLSR, peptide start residue: 118) (UniProt Q13277)” stands -0.394; under “G3BP1 (peptide sequence: FYVHNDIFR, peptide start residue: 124) (UniProt Q13283)”, -0.156; under “TDG (peptide sequence: CLFMSGLSEVQLNHMDDHTLPGK, peptide start residue: 162) (UniProt Q13569)”, 0.978.
Consider “GOLGB1 (peptide sequence: TLKEQLNLLSR, peptide start residue: 930) (UniProt Q14789)”, for which the log2 fold change was -0.495.
In the case of “SNTA1 (peptide sequence: QLVDGCHR, peptide start residue: 395) (UniProt Q13424)”, the log2 fold change is 0.499.
“LAGE3 (peptide sequence: GGVDTAAAPAGGAPPAHAPGPGR, peptide start residue: 25) (UniProt Q14657)”: the log2 fold change was found to be 0.0555.
As to “ESPL1 (peptide sequence: GSSSGLLSPQR, peptide start residue: 237) (UniProt Q14674)”, the log2 fold change stood at 0.658.
“DYRK1A (peptide sequence: HQQGQGDDSSHKK, peptide start residue: 119) (UniProt Q13627)”: the log2 fold change is 0.658.
With “NUMA1 (peptide sequence: YVQELAAVRADAETR, peptide start residue: 1476) (UniProt Q14980)”, the log2 fold change is -0.468.
For the target “LBR (peptide sequence: RSASASHQADIK, peptide start residue: 96) (UniProt Q14739)”, the log2 fold change is -0.308.
“NOLC1 (peptide sequence: VAGGAAPSKPASAK, peptide start residue: 497) (UniProt Q14978)”: the log2 fold change came out at 0.129.
As to “SKP2 (peptide sequence: LLSQGVIAFR, peptide start residue: 155) (UniProt Q13309)”, the log2 fold change was -0.151.
For “UniProt Q14159 (peptide sequence: HQCISYQK, peptide start residue: 282)”, the log2 fold change was 0.592.
As to “PPFIA1 (peptide sequence: CSLLEEELGATHK, peptide start residue: 189) (UniProt Q13136)”, the log2 fold change was -0.163.
With “SPTAN1 (peptide sequence: SQLLGSAHEVQR, peptide start residue: 1226) (UniProt Q13813)”, the log2 fold change is -0.366.
Regarding “GAPVD1 (peptide sequence: SECSSDFGGK, peptide start residue: 787) (UniProt Q14C86)”, the log2 fold change came to 0.158.
The value for “UniProt Q14094 (peptide sequence: KVEEMEVDDFYDGIKR, peptide start residue: 324)” was -0.536; that for “NMI (peptide sequence: VPYEIQK, peptide start residue: 96) (UniProt Q13287)” was -0.312; that for “UniProt Q13155 (peptide sequence: CFGEQNKK, peptide start residue: 168)” was -0.284.
The value for “UniProt Q14324 (peptide sequence: KPDSVSVETGK, peptide start residue: 57)” was 0.768.
